# Values joined by “and” are separate entries in the source; they are usually repeats but may differ in a detail not shown here. Equal entries are not always repeated. Among all 390,000 compounds or so, about 910 (0.23%) were called active. This list was built around the results that the source calls inconclusive (neither active nor inactive); the mix of calls is not that of the screen. Calls come from the whole dose curve; as a rule, active = well fitted inhibition curve with a large enough effect; inconclusive = small, poorly fitted or top-dose-only effect; inactive = no such curve, though single readings can be large or run the other way. Where the call is inconclusive, the potency comes from a doubtful curve fit.
# Sequences of proteins named here, by UniProt entry; tags and fusion partners are left off. A change or cut given only in a name is not applied to a line headed by its entry.
# UniProt O94782: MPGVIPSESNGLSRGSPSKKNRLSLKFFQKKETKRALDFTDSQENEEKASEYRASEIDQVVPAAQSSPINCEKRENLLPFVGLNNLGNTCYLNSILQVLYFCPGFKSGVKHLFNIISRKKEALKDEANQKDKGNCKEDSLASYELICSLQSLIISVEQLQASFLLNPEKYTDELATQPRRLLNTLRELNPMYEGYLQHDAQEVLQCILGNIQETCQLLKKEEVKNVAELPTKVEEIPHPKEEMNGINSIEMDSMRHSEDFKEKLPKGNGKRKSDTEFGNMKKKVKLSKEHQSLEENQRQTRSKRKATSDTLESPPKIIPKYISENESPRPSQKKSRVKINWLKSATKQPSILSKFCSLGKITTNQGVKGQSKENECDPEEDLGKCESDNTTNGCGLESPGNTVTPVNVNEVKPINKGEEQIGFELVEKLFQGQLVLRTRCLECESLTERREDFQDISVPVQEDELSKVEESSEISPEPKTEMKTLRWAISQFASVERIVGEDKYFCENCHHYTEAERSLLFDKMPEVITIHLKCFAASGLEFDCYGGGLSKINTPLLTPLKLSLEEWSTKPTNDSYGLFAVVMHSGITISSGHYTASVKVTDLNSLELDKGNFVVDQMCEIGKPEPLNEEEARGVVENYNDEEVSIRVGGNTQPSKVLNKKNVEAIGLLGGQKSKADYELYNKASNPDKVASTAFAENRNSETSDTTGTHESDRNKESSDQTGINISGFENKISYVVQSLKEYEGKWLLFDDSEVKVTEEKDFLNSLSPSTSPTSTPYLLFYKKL
# Target: Ubiquitin carboxyl-terminal hydrolase 1 (Homo sapiens) (UniProt O94782)
# Assay: Inhibitors of USP1/UAF1: Primary Screen; note: nearly all actives have a fitted effect of over 60% in size
# Conditions: recombinant USP1/UAF1, Ub-Rhodamine cleavage fluorescence; activity change, negative = inhibition: at 57.1 µM (top of the series)
# Method in brief: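 In this screen, compounds sit with the deubiquitinase complex (1nM) for 15 min at room temperature before Ub-Rho is added at 150nM final. Fluorescence rise is then followed for 6 reads every 60 seconds.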
# % is set by controls: 0 for no effect and ±100 for the full control effect; potency is the fitted concentration of half-maximal effect.
SMILES,Potency,"activity change, negative = inhibition"
Cc1ncoc1C(=O)N1CCCC(C(=O)c2ccc(C(F)(F)F)cc2)C1 (centres undefined),"inconclusive: 5.62 µM [inhibitor, partial curve]",–
CN1CCN(c2nc3nonc3nc2N2CCN(C)CC2)CC1,–,inactive: -26%
COc1ccc(CNC(=O)CCNS(=O)(=O)c2ccc(Cl)cc2)cc1,"inconclusive: 0.224 µM [inhibitor, full curve, poor fit]",–
COc1cc(S(=O)(=O)NCc2ccc3c(c2)OCO3)ccc1Cl,"inconclusive: 0.251 µM [inhibitor, full curve, poor fit]",–
COc1ccc(Br)cc1/C=N/Nc1ccc(S(=O)(=O)Nc2ccccc2C(=O)O)cc1[N+](=O)[O-],"inconclusive: 39.8 µM [inhibitor, single point]",–
COc1ccccc1C1C2=C(N=C3SCC(=O)N31)c1ccccc1CC2 (centres undefined),"inconclusive: 11.2 µM [inhibitor, full curve, poor fit]",–
Cc1ccc(O)c(N=Cc2sc3ccccc3c2Cl)c1,–,inactive: -20%
Cc1cn([C@H]2C[C@H](O)[C@@H](CNCc3ccc(F)c(N4CCOCC4)c3)O2)c(=O)[nH]c1=O,–,inactive: -23.5%
COc1cc(NC(=O)c2cccs2)c(OC)cc1NC(=O)Cc1ccccc1,–,inactive: -7.9%
COc1cc2c(cc1OC)C1=NC(=O)CN1C(SCc1ccccc1)=N2,–,inactive: -1.13%
O=c1cc(-c2ccccc2)c2ccc3c(c2o1)CN(Cc1cccc(Cl)c1)CO3,"inconclusive: 28.2 µM [inhibitor, single point]",–
Cc1ccc(C)c(NC(=O)C2=CCN(S(=O)(=O)c3ccc(F)cc3)CC2)c1,"inconclusive: 0.355 µM [inhibitor, full curve, poor fit]",–
Cc1cc(C)c2c(c1)c(C)cc1nnc(SCC(=O)c3ccccc3)n12,"inconclusive: 14.1 µM [inhibitor, partial curve]",–
C=CCC(CC)C(=O)NC(=O)N1CCCc2ccccc21 (centres undefined),–,inactive: -25.2%
CC(=O)Nc1ccc(C(=O)Nc2cccc(-c3cnc4ccccc4n3)c2)cc1,"inconclusive: 10 µM [inhibitor, partial curve]",–
O=C(CCN1CCCCCC1)Nc1ccc(F)cc1,"inconclusive: 28.2 µM [inhibitor, partial curve]",–
Cc1ccc(C(=O)C2=C(O)C(=O)N(Cc3cccnc3)C2c2cccc(Oc3ccccc3)c2)o1 (centres undefined),"inconclusive: 25.1 µM [inhibitor, partial curve]",–
Cc1cccc(-c2ncc(CN3CCCC(CO)(Cc4ccccc4C)C3)cn2)c1 (centres undefined),"inconclusive: 39.8 µM [inhibitor, partial curve, poor fit]",–
CCN(CC)c1ccc(C(=O)OCC(=O)Nc2ncccn2)cc1,"inconclusive: 50.1 µM [inhibitor, partial curve, poor fit]",–
CCc1ccc(OCC(=O)N2CCc3ccccc32)cc1,–,inactive: -22.4%
CC(/C=C1\SC(=S)N(NC(=O)c2ccccc2C)C1=O)=C\c1ccccc1,–,inactive: -15%
N#CC(C#N)=C(Nc1ccc(F)cc1)SCc1cccc(Br)c1,–,inactive: -12.8%

# Arranged by SMILES length (largest number first): part of the list above
SMILES,Potency,"activity change, negative = inhibition"
Cc1cn([C@H]2C[C@H](O)[C@@H](CNCc3ccc(F)c(N4CCOCC4)c3)O2)c(=O)[nH]c1=O,–,inactive: -23.5%
CC(=O)Nc1ccc(C(=O)Nc2cccc(-c3cnc4ccccc4n3)c2)cc1,"inconclusive: 10 µM [inhibitor, partial curve]",–
Cc1cccc(-c2ncc(CN3CCCC(CO)(Cc4ccccc4C)C3)cn2)c1 (centres undefined),"inconclusive: 39.8 µM [inhibitor, partial curve, poor fit]",–
COc1ccccc1C1C2=C(N=C3SCC(=O)N31)c1ccccc1CC2 (centres undefined),"inconclusive: 11.2 µM [inhibitor, full curve, poor fit]",–
O=C(CCN1CCCCCC1)Nc1ccc(F)cc1,"inconclusive: 28.2 µM [inhibitor, partial curve]",–

# Next results follow.

SMILES,Potency,"activity change, negative = inhibition"
Cc1cc(NC(=O)CSc2nnc(C3COc4ccccc4O3)o2)no1 (centres undefined),–,inactive: -19.4%
C/C(CCC(C)C)=N\Nc1cc(C)c2ccccc2n1,"inconclusive: 35.5 µM [inhibitor, partial curve]",–
Cc1ccc(NC(=O)c2cnc(N3CCCC3)nc2C)cc1F,"inconclusive: 12.6 µM [inhibitor, partial curve, poor fit]",–
N#C/C(=C\c1ccccc1C(=O)O)c1nc2ccccc2[nH]1,–,inactive: -19.4%
Cc1cccc(C(=O)Nc2ccc3c(c2)ncn3C)c1,"inconclusive: 5.62 µM [inhibitor, single point]",–
COc1ccc(NC(=O)CNC(=O)Cn2c(C)cc3ccccc3c2=O)c(OC)c1,"inconclusive: 126 µM [inhibitor, partial curve]",–
CC(C)CS(=O)(=O)C1=NSC2=NC(=O)/C(=C\c3ccc(OC(=O)c4ccco4)cc3)C(=N)N21,"inconclusive: 25.1 µM [inhibitor, partial curve]",–
CN(CCC#N)C(=O)CC1(Cc2ccccc2)CCOC(C)(C)C1 (centres undefined),"inconclusive: 20 µM [inhibitor, partial curve]",–
O=C(NCc1ccccn1)c1cc(-c2ccccc2Cl)nc2ccccc12,–,inactive: -22.4%
COc1ccccc1NC(=O)C1=C(C)Nc2nc(SC)nn2C1c1ccccc1Cl (centres undefined),"inconclusive: 3.16 µM [inhibitor, full curve]",–
COc1cc(CC(=O)C(=O)O)oc(=O)c1,"inconclusive: 5.01 µM [inhibitor, partial curve]",–
C[C@@H]1CN([C@H](C)CO)C(=O)c2cc(NC(=O)c3ccncc3)ccc2O[C@@H]1CN(C)C(=O)Nc1ccccc1,"inconclusive: 56.2 µM [inhibitor, partial curve, poor fit]",–
Cc1cc2n(n1)CCC(=O)N2Cc1ccc(C(=O)Nc2cc(Cl)ccc2C)cc1,"inconclusive: 11.2 µM [inhibitor, partial curve, poor fit]",–
CCc1ccc(CNC(=O)C2CCCN(c3nnc(C)c4c(C)n(-c5ccccc5)nc34)C2)cc1 (centres undefined),"inconclusive: 39.8 µM [inhibitor, single point] and inconclusive: 79.4 µM [inhibitor, partial curve, poor fit]",–
C[C@@H]1C(c2ccccc2)=NN(c2ccccc2)[C@H]1C(=O)N1CCOC1=O,–,inactive: -24.9%
COc1ccc(NC(=O)CSc2nc(SC)ns2)c(OC)c1,"inconclusive: 15.8 µM [inhibitor, partial curve]",–
CCN1CCN(Cc2ccc(NC(=O)c3ccc(C)c(/C=C/c4cnc(Nc5cc(N6CCNCC6)nc(C)n5)cn4)c3)cc2C(F)(F)F)CC1,"inconclusive: 44.7 µM [inhibitor, partial curve, poor fit]",–
O=c1c2cc3c(cc2nc2sc(Nc4cccc([N+](=O)[O-])c4)nn12)OCO3,"inconclusive: 35.5 µM [inhibitor, partial curve]",–
Cc1c(N=C2C=C(Br)C(=O)C(Br)=C2)c(=O)n(-c2ccccc2)n1C,"inconclusive: 35.5 µM [inhibitor, partial curve]",–
CC(=O)OC1CC[C@@]2(C)C(CCC3C2CC(=O)[C@@]2(C)C3CC3CC(C)=CC(=O)C32)C1 (some centres undefined),"inconclusive: 44.7 µM [inhibitor, partial curve, poor fit]",–
CC(=O)Nc1cc(C(=O)NCc2ccc(F)cc2)ccc1Sc1ccc(F)cc1,"inconclusive: 0.794 µM [inhibitor, full curve]",–
COc1cccc2c1C(=O)c1c(O)c3c(c(O)c1C2=O)C[C@@](O)(C(=O)CO)C[C@@H]3O[C@H]1C[C@H](N)[C@@H](O)[C@H](C)O1,active: 28.2 µM,–

SMILES,Potency,"activity change, negative = inhibition"
O=C(CN1CCCN(Cc2cccc(Cl)c2)S1(=O)=O)Nc1ccc2c(c1)OCCO2,"inconclusive: 44.7 µM [inhibitor, partial curve, poor fit]",–
COc1ccc(C(=O)C2CCCN(Cc3cn[nH]c3-c3ccc(F)cc3)C2)cc1OC (centres undefined),–,inactive: -19.3%
COc1ccc2nc3ccccc3[n+]([O-])c2c1,"inconclusive: 39.8 µM [inhibitor, partial curve]",–
Cc1ccc(-n2cccc2/C=C2/NC(=O)N(CC(=O)Nc3cccc(C)c3)C2=O)cc1,–,inactive: -21.7%
COc1ccc(C(=O)OCC(=O)N2CCc3ccccc3C2)cc1OC,–,inactive: -19.7%
Clc1ccc(CCNc2nc3cc(Cl)c(Cl)cc3n3cnnc23)cc1,"inconclusive: 44.7 µM [inhibitor, partial curve, poor fit]",–
Cc1ccc(-c2nc(S(=O)(=O)c3ccc(C)cc3)c(SCC(N)=O)o2)cc1,"inconclusive: 7.94 µM [inhibitor, full curve, poor fit]",–
O=C1CCN(Cc2ccccc2)C(=O)N1,"inconclusive: 7.94 µM [inhibitor, single point]",–
C=CCOc1ccc(CNc2nccs2)cc1,"inconclusive: 44.7 µM [inhibitor, partial curve, poor fit]",–
CC(=O)N1N=C(c2ccc(C)cc2)OC1c1ccc(Br)cc1 (centres undefined),–,inactive: -12.4%
CCc1ccccc1NC(=O)c1cn(C)c(=O)c2ccccc12,"inconclusive: 6.31 µM [inhibitor, single point]",–
COCCCNC(=O)C1CCN(Cc2cc3ccccc3n2Cc2cccc(C)c2)CC1,"inconclusive: 4.47 µM [inhibitor, partial curve]",–
COc1cc(NC(=O)c2ccc3c(c2)OCCO3)ccc1NC(=O)c1ccccc1Cl,–,inactive: -23.2%
O=C(CCC(=O)N1CCc2ccccc2C1)N1CCN(S(=O)(=O)c2ccccc2)CC1,"inconclusive: 35.5 µM [inhibitor, partial curve]",–
COc1ccc(NC(=O)C2CCN(S(=O)(=O)c3ccc(OC)c(OC)c3)CC2)cc1,"inconclusive: 39.8 µM [inhibitor, partial curve, poor fit]",–
S=C(NCC1CCCO1)c1ccc(Br)cc1 (centres undefined),–,inactive: -5.27%
CN(CC(=O)Nc1ccc(Cl)cc1)S(=O)(=O)c1cccc2cccnc12,"inconclusive: 5.01 µM [inhibitor, full curve, poor fit]",–
COc1ccccc1CNC(=O)CSc1ncc(S(=O)(=O)c2ccc(C)c(Cl)c2)c(=O)[nH]1,"inconclusive: 44.7 µM [inhibitor, partial curve]",–
COc1ccc(-c2nnc(SCC(=O)N3CCC(C)CC3)o2)cc1,"inconclusive: 39.8 µM [inhibitor, partial curve]",–
COc1cc(-c2nc(SCC(=O)Nc3ccc4c(c3)OCO4)c(-c3ccccc3)[nH]2)cc(OC)c1OC,"inconclusive: 20 µM [inhibitor, partial curve, poor fit]",–

# — PubChem BioAssay AID743255 (National Center for Advancing Translational Sciences (NCATS), 2014)
